Test results taken from patent US12433913B2, “Treatment of acute respiratory disease syndrome (ARDS) with polysulfated polysaccharides” (Paradigm Biopharmaceuticals Ltd., priority 2020, dated 2025).
Values joined by “and” are separate entries in the source; they are usually repeats but may differ in a detail not shown here. Equal values may be shown once. Read-outs that look alike come from different tables or passages of the source. The source gives many values for each of these; only a part stands here.

System: SARS-CoV-2
Type: cell-based, Vero (Africa Green Monkey kidney epithelium)
Settings: replicates

pentosan polysulfate [PPS]
PFU/well (PPS 25 μg/ml on Vero cells 30 min prior to infection with 50 PFU): 28 PFU/well and 32 PFU/well
PFU/well (PPS 50 μg/ml on Vero cells 30 min prior to infection with 50 PFU): 17 PFU/well and 20 PFU/well and 32 PFU/well and 25 PFU/well and 31 PFU/well and 29 PFU/well and 27 PFU/well and 24 PFU/well
PFU/well (PPS 100 μg/ml on Vero cells 30 min prior to infection with 50 PFU): 20 PFU/well and 19 PFU/well and 22 PFU/well (2×) and 23 PFU/well and 21 PFU/well (2×) and 25 PFU/well
